No constants are given. Whether binding was seen depends on the method and setting. Binding seen in cells or lysates may run through a third protein. Some binding calls cover weakened binding; strength is not graded here.
Target: Bax (human (endogenous in HL-60)) (UniProt Q07812)
Experiment: co-IP; Bax immunoprecipitated from HL-60 RIPA lysates with 2 ug anti-Bax antibody (clone 6A7) and protein A-agarose overnight at 4 C; 15% SDS-PAGE and Western blot with anti-Bid antibody; cells untreated or treated with 100 uM H2O2 for 120 min or 1 uM thapsigargin for 60 min

Protein sequences, listed by entry. Tags and fused reporters are not part of them.
UniProt Q07812: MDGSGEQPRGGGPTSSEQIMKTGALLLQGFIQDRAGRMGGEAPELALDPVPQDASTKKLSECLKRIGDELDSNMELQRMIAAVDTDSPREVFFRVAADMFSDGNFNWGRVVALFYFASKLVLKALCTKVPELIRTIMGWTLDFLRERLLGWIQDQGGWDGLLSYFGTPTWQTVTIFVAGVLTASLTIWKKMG

B1: Bid (protein, UniProt P55957 1-195)
chain: MDCEVNNGSSLRDECITNLLVFGFLQSCSDNSFRRELDALGHELPVLAPQWEGYDELQTDGNRSSHSRLGRIEADSESQEDIIRNIARHLAQVGDSMDRSIPPGLVNGLALQLRNTSRSEEDRNRDLATALEQLLQAYPRDMEKEKTMLVLALLLAKKVASHTPSLLRDVFHTTVNFINQNLRTYVRSLARNGMD
binding: binds

From article PMC3614781
